# Earlier results in patent publication US20220143026A1, “TRIPLE COMBINATION TO TREAT B-CELL MALIGNANCIES” (TG Therapeutics, Inc., priority 2020, published 2022).
# At least one structure is not confirmed: it was looked up by name or label, or the drawing left a doubt.
# What was measured:
# B-NHL cell lines [1] = conditions: compared to monotherapy ADCC activity of ublituximab, across cell lines; cited from earlier work
# B-NHL cell lines [2] = conditions: cited from earlier work
structure (smiles),measurement,setting,value
"C=CC(=O)N1CCC[C@@H](n2nc(-c3ccc(Oc4ccccc4)cc3)c3c(N)ncnc32)C1 [ibrutinib, reference compound]",ADCC activity of ublituximab in the presence of the BTK inhibitor,B-NHL cell lines [1],attenuated
same,ADCP activity of rituximab in the presence of the BTK inhibitor,B-NHL cell lines [2],diminished
same,ADCP activity of ublituximab in combination with the BTK inhibitor,B-NHL cell lines [2]; increasing concentrations,decreases in ADCP activity
